Results: PubChem BioAssay AID493014 (National Center for Advancing Translational Sciences (NCATS), 2011)
Screen size: about 340,000 compounds; about 170 (0.05%) were called active. The inconclusive results got no clear call from the source; some entries with a clear call stand among them for comparison. Calls follow the shape of the dose curve; as a rule, active = well fitted inhibition curve with a large enough effect in the signal ratio, with a control signal flat (not every such curve was filed as active); inconclusive = small, poorly fitted or top-dose-only effect, or effect the other way, or a change in a side signal; inactive = flat fitted curve, though single readings scatter; the % refers to the signal ratio. A potency beside an inconclusive call is a rough fit, not a confirmed value.
Potency is read from the fitted curve at half-maximal effect.

Experiment: qHTS Assay to Find Inhibitors of Chronic Active B-Cell Receptor Signaling;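 as to activity change, negative = inhibition: plate controls were basal doxycycline-induced cells for no effect and cells given 10 µM MG132 for full effect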
Settings: ABC-DLBCL IkBa-CBG/CBR reporter, luminescence ratio (green luciferase fused to IkBa over red control in TMD8 lymphoma cells), 4 h; activity change, negative = inhibition: at 46.1 µM (top of the series)
Outline: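 Doxycycline induced both beetle luciferases in TMD8 lymphoma cells; IKK-driven degradation limits the IkappaBalpha-fused green signal, while red luminescence normalises for cell number and nonspecific effects. Compounds tested up to 46 uM, 4 hrs.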
With `Cc1cc(Sc2nc(N)ncc2[N+](=O)[O-])ncn1` the Potency was inconclusive: 12.6 µM [falling, single point].
With `O=C(COC(=O)CNC(=O)c1cccs1)Nc1ccc(C(F)(F)F)cc1[N+](=O)[O-]` the activity change, negative = inhibition was inconclusive: 17.2%.
In the case of `O=C(NCc1ccccc1Br)c1ccncc1`, the Potency was inconclusive: 17.8 µM [falling, partial curve, poor fit].
With `Brc1ccc(N=Nc2ccc3ccccc3n2)cc1` the Potency was inconclusive: 3.16 µM [falling, single point].
With `CC(C)N(Cc1ccccc1)C(=O)COC(=O)/C=C/c1cnc2ccccc2n1` the Potency was inconclusive: 20 µM [falling, partial curve, poor fit].
In the case of `Cc1nn(Cc2ccc(Cl)cc2)c2sc(C(=O)OCC(N)=O)cc12`, the Potency was inconclusive: 32.6 µM [falling, single point].
For `CC(C)OC(=O)CSc1nnnn1-c1ccc2c(c1)OCCO2`, the activity change, negative = inhibition was inconclusive: 5.24%.
For `Cc1ccc(C)c(NC(=O)c2ccccn2)c1`, the activity change, negative = inhibition was inconclusive: -0.745%.
In the case of `Cc1ccc(CSCC(Nc2ccc(C(=O)O)cc2[N+](=O)[O-])C(=O)O)cc1` (configuration not stated), the activity change, negative = inhibition was inconclusive: -17.7%.
With `COc1cc(C(=O)N2CCN(Cc3ccccn3)CC2)cc(OC)c1OC` the activity change, negative = inhibition was inconclusive: 3.53%.
With `COc1cc(OC)c(OC)cc1CN(C)CCc1ccccn1` the activity change, negative = inhibition was inconclusive: 1.12%.
For `Clc1nc(Cl)nc(-c2cn(-c3ccccc3)c3ccccc23)n1`, the “activity change, negative = inhibition” value was inactive: 7.23%.
For `Cn1c(C(=O)NCCCN2CCN(c3ccccc3F)CC2)cc2c(=O)n(C)c3ccccc3c21`, the “activity change, negative = inhibition” value was inactive: -0.75%.
In the case of `C/C(=N\NC(N)=S)c1ccc(-n2ccnc2)cc1`, the “activity change, negative = inhibition” value was inactive: -8.16%.
With `Cc1ccc(SC[C@H](Cc2ccccc2)N2CCN(CC(C)C)CCC2=O)cc1` the activity change, negative = inhibition was inconclusive: 0.207%.
For `CC1CCOC2(O1)C(=O)Nc1ccccc12` (configuration not stated), the Potency was inconclusive: 15.8 µM [falling, partial curve, poor fit].
With `CS(=O)(=O)c1ccc(C(=O)Nc2cccc(-c3nc4ccccc4[nH]3)c2)cc1` the activity change, negative = inhibition was inconclusive: -19%.
In the case of `COc1ccccc1/C=C/C(=O)NC(=S)NCC1CCCO1` (configuration not stated), the “activity change, negative = inhibition” value was inactive: -12%.
For `CCOC(=O)Cc1cc(=O)[nH]c(Nc2nc3ccccc3o2)n1`, the Potency was inconclusive: 35.5 µM [falling, single point].
With `CC(C)CCNC(=O)NC(=O)CSc1nnc(-c2ccccc2F)n1N` the activity change, negative = inhibition was inconclusive: 16.7%.
With `CN1CCCN(S(=O)(=O)c2ccccc2)c2nc3ccccc3nc21` the activity change, negative = inhibition was inconclusive: 9.98%.
For `Cc1ccc(NC(=O)Nc2cccc([N+](=O)[O-])c2)nc1`, the activity change, negative = inhibition was inconclusive: 18%.
In the case of `O=C(N/N=C/c1coc2ccccc2c1=O)c1cc(O)cc(O)c1`, the Potency was inconclusive: 8.91 µM [falling, partial curve, poor fit].
For `Cc1[nH]c2ccccc2c1SCc1n[nH]c(=S)n1C`, the “activity change, negative = inhibition” value was inactive: -1.42%.
In the case of `Cc1noc(C)c1COc1ccccc1C(=O)NCCc1ccccc1`, the activity change, negative = inhibition was inconclusive: 6.69%.
In the case of `CCOC(=O)CSc1nc(-c2ccccn2)ncc1OC`, the “activity change, negative = inhibition” value was inactive: -0.93%.
In the case of `O=C(c1nnsc1S(=O)(=O)c1ccc(Cl)cc1)N1CCOCC1`, the activity change, negative = inhibition was inconclusive: 15.2%.
For `CC(Sc1ccsc1[N+](=O)[O-])C(=O)NCc1ccco1` (configuration not stated), the Potency was inconclusive: 0.316 µM [falling, full curve, poor fit].
In the case of `CCN(CC)S(=O)(=O)c1ccc(-c2nnc(SCC(N)=O)n2CC)cc1`, the “activity change, negative = inhibition” value was inactive: 11.5%.
With `O=C(Nc1ccc2nc(N3CCOCC3)sc2c1)c1ccc(F)cc1` the Potency was inconclusive: 23.1 µM [falling, partial curve, poor fit].
With `O=[N+]([O-])c1ccc(NCc2ccncc2)cc1` the “activity change, negative = inhibition” value was inactive: 6.33%.
In the case of `COc1ccc(Cn2nnnc2C(CC(C)C)N2CCN(c3ccccc3)CC2)cc1` (configuration not stated), the activity change, negative = inhibition was inconclusive: -3.25%.
With `COc1ccc2c(c1)c(C(=O)OCCN(C)C)c(C)n2C` the activity change, negative = inhibition was inconclusive: 5.01%.
For `Cc1cccc2sc(NC(=O)CSCc3ccccc3)nc12`, the activity change, negative = inhibition was inconclusive: 19.6%.
In the case of `CNC(=O)c1ccsc1NC(=O)c1ccc(S(=O)(=O)N2CCc3ccccc32)cc1`, the activity change, negative = inhibition was inconclusive: -0.488%.
For `COc1ccc(S(=O)(=O)CC(=O)c2cc3cc(Br)ccc3oc2=O)cc1`, the activity change, negative = inhibition was inconclusive: -8.1%.
With `COc1ccc(NC(=O)c2ccccc2C)cc1` the Potency was inconclusive: 12.6 µM [falling, partial curve].
In the case of `COc1cccc(C(C(=O)NCc2ccco2)N(C(=O)Cn2nnc3ccccc32)C2CC2)c1OC` (configuration not stated), the “activity change, negative = inhibition” value was inactive: 4.14%.
For `CCC(C)N1C(=O)CCC1C(=O)N1CCN(c2ccc(F)cc2)CC1` (configuration not stated), the Potency was inconclusive: 3.66 µM [rising, partial curve, poor fit].
With `Cc1cc(NC(=O)COC(=O)c2ccccc2NCCO)no1` the Potency was inconclusive: 18.4 µM [falling, partial curve, poor fit].
In the case of `Cc1noc(C)c1COC(=O)c1ccc(F)c(S(=O)(=O)N2CCCCC2)c1`, the Potency was inconclusive: 11.2 µM [falling, partial curve].
With `COc1ccc(-c2onc3ccc(Cl)cc23)cc1` the Potency was inconclusive: 16.4 µM [rising, partial curve, poor fit].
With `O=C1CN(C(=O)c2ccc(Br)o2)C(c2ccc(F)cc2)c2cc(F)ccc2N1` (configuration not stated) the activity change, negative = inhibition was inconclusive: -10.4%.
With `CCOCCCNC(=O)C(c1ccc(OC)cc1)N(Cc1ccc2c(c1)OCO2)C(=O)c1ccccn1` (configuration not stated) the “activity change, negative = inhibition” value was inactive: -3.96%.
In the case of `CCOC(=O)C1CCCN(C(=O)c2ccccc2SCCOC)C1` (configuration not stated), the “activity change, negative = inhibition” value was inactive: -0.0865%.
In the case of `O=C(Nc1nc(=O)[nH]s1)c1ccccc1`, the activity change, negative = inhibition was inconclusive: -24.1%.
In the case of `Cc1nn(-c2ccccc2)c2[nH]c(=O)c(CNCCN3CCOCC3)cc12`, the “activity change, negative = inhibition” value was inactive: 3.1%.
For `O=C(Nc1ccc2c(c1)COC2=O)c1ccc(Cl)c(Cl)c1`, the activity change, negative = inhibition was inconclusive: -1.05%.
For `COc1ccc(S(=O)(=O)N2CCOCC2)c(C)c1C`, the activity change, negative = inhibition was inconclusive: -7.26%.
For `Cc1ccc(N(CC(=O)N/N=C/c2ccc(OC3CSC3)cc2)S(=O)(=O)c2ccccc2)c(C)c1`, the activity change, negative = inhibition was inconclusive: 4.88%.
In the case of `Cc1cccc(NC(=O)c2sc(C)nc2C)c1`, the Potency was inconclusive: 0.326 µM [falling, full curve].
In the case of `COc1ccc(S(=O)(=O)N2CCCCC2)cc1NC(=O)c1cc([N+](=O)[O-])ccc1N1CCOCC1`, the “activity change, negative = inhibition” value was inactive: 5.45%.
